Experimental data reported in doi:10.1101/2020.04.16.044081.
Like-named read-outs stand apart in the source and are kept apart here. These are yes or no findings as the source states them, for the method shown. Binding seen in cells or lysates may run through a third protein. Some binding calls cover weakened binding; strength is not graded here. For some assays here: Sequences can lack the tags named with a protein. Each block holds one binder with its values, some of them ahead of it.

The chains behind the UniProt entries cited, without tags or fusion partners. Residues count along the entry.
UniProt P49815: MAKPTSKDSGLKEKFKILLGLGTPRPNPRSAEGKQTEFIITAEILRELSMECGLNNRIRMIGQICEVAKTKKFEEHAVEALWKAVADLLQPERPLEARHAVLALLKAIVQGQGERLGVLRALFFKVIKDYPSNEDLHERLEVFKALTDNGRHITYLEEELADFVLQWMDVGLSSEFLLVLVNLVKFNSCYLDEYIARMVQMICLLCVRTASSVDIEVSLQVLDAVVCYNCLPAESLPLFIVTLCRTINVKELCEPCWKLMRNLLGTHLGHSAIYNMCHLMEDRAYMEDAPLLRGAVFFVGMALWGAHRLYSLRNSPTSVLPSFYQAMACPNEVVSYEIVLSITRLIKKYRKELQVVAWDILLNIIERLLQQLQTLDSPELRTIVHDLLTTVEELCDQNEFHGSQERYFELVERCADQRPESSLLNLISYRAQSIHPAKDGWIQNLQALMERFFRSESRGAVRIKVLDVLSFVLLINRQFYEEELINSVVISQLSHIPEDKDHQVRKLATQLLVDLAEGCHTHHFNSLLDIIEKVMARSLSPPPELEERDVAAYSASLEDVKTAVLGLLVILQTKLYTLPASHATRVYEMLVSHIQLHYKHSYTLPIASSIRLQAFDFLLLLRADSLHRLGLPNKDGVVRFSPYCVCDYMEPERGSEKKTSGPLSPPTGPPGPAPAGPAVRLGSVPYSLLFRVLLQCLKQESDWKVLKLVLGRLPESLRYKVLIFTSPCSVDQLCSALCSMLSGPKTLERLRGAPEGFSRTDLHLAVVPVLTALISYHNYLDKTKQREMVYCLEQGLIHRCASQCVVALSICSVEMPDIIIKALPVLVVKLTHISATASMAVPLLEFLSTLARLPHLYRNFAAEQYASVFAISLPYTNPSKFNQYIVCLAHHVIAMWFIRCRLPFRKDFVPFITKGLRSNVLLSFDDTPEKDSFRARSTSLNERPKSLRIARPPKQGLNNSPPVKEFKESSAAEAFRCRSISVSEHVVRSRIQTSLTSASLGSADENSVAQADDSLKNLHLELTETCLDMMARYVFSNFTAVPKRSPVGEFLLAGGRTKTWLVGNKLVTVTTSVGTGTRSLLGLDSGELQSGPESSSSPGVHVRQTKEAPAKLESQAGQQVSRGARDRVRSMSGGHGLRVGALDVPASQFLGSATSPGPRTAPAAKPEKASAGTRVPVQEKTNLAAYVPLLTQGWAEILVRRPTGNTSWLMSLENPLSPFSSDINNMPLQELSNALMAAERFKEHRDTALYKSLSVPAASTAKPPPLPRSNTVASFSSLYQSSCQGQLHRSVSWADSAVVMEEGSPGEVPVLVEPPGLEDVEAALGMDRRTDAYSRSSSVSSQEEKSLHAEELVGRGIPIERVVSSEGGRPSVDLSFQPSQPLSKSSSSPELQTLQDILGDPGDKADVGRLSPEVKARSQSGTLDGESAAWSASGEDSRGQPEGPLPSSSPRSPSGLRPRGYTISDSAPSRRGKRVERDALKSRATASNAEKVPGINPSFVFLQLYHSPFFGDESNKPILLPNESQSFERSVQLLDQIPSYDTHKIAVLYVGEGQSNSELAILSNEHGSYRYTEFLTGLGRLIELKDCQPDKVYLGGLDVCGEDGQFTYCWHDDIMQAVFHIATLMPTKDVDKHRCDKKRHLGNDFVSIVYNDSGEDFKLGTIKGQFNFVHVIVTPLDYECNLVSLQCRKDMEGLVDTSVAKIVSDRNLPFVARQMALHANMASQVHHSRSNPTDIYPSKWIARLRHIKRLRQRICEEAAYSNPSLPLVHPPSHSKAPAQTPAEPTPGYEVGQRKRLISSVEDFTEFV
UniProt P13473, residues 29-410: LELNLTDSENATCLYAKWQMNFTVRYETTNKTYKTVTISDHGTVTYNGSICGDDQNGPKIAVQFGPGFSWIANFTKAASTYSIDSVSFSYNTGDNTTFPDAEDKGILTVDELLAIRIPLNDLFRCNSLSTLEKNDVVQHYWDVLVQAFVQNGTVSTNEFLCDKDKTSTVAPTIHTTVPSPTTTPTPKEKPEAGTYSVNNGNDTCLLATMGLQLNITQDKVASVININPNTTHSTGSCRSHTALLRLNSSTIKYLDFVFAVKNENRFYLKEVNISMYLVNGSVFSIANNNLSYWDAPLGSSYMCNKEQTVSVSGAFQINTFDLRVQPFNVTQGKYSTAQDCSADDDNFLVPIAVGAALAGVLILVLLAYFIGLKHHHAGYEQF

Assays:
[1] = target: TSC2 (tuberin), endogenous human (human (endogenous in MCF-7, MDA-MB-231, HEK293T)) (UniProt P49815); experiment: co-IP
[2] = target: TSC2 (tuberin), endogenous human (human (endogenous in MCF-7, MDA-MB-231, HEK293T)) (UniProt P49815); experiment: co-IP; remark: listed apart in the source
[3] = target: TSC2 (tuberin), endogenous human (human (endogenous in MCF-7, MDA-MB-231, HEK293T)), P49815; experiment: co-IP; conditions: remark: other sources report otherwise
[4] = target: T1, TSC1 (hamartin), endogenous human (human (endogenous in MCF-7, MDA-MB-231)) (UniProt Q92574); experiment: co-IP
T1 sequence: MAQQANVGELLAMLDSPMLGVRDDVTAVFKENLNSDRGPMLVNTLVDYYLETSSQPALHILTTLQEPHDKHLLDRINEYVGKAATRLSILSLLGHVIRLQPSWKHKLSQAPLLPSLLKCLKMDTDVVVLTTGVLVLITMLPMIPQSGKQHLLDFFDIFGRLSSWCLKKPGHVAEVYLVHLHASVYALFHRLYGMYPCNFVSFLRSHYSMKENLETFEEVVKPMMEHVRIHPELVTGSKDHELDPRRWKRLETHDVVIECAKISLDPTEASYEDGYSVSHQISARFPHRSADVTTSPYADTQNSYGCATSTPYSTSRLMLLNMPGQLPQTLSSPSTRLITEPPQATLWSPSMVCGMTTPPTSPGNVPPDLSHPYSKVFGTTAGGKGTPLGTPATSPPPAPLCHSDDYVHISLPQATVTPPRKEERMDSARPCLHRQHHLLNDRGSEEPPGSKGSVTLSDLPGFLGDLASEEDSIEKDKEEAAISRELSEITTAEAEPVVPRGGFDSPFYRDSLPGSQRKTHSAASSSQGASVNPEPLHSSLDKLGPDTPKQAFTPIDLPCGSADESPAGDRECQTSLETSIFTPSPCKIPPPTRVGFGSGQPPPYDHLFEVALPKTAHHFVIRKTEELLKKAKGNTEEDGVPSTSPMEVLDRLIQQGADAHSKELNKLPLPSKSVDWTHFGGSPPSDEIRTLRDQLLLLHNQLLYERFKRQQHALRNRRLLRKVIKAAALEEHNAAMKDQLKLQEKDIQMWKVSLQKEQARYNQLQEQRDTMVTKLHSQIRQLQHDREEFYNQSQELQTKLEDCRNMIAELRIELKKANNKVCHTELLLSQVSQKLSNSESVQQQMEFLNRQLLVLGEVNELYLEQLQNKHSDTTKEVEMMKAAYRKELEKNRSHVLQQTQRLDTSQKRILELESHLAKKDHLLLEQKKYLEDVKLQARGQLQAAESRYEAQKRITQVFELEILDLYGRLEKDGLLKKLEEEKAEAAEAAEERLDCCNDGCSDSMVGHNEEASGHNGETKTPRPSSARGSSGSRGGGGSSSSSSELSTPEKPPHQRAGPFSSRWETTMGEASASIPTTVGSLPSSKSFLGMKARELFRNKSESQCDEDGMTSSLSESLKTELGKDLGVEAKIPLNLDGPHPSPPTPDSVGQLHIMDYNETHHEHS

[5] = target: T2, N-terminal mLumin fragment fused to LAMP1 (pGW-HA-LN151-LAMP1) (human) (UniProt P11279); experiment: split reporter
T2 sequence: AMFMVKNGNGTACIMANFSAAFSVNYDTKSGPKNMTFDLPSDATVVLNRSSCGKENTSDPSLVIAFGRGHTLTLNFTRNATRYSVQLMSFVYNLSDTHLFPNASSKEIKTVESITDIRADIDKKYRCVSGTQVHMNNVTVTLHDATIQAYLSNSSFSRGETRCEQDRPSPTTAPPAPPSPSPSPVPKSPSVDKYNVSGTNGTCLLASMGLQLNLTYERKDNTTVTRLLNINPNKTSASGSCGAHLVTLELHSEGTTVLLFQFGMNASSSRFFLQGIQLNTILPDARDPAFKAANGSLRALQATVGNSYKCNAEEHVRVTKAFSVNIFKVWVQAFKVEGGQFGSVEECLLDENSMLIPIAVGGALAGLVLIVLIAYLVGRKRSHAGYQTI

[6] = target: N-terminal mLumin fragment fused to LAMP2 (pGW-HA-LN151-LAMP2) (human) (UniProt P13473); experiment: split reporter
[7] = target: N-terminal mLumin fragment fused to TSC2 (pGW-HA-LN151-TSC2) (human) (UniProt P49815); experiment: split reporter

B3: TBC1D7, endogenous human (protein, UniProt Q9P0N9 1-293)
chain: MTEDSQRNFRSVYYEKVGFRGVEEKKSLEILLKDDRLDTEKLCTFSQRFPLPSMYRALVWKVLLGILPPHHESHAKVMMYRKEQYLDVLHALKVVRFVSDATPQAEVYLRMYQLESGKLPRSPSFPLEPDDEVFLAIAKAMEEMVEDSVDCYWITRRFVNQLNTKYRDSLPQLPKAFEQYLNLEDGRLLTHLRMCSAAPKLPYDLWFKRCFAGCLPESSLQRVWDKVVSGSCKILVFVAVEILLTFKIKVMALNSAEKITKFLENIPQDSSDAIVSKAIDLWHKHCGTPVHSS
binding [4]: binds

B4: G3BP2 fused to a C-terminal mLumin fragment (pGW-MYC-LC151-G3BP2) (protein, UniProt Q9UN86 1-482)
chain: MVMEKPSPLLVGREFVRQYYTLLNKAPEYLHRFYGRNSSYVHGGVDASGKPQEAVYGQNDIHHKVLSLNFSECHTKIRHVDAHATLSDGVVVQVMGLLSNSGQPERKFMQTFVLAPEGSVPNKFYVHNDMFRYEDEVFGDSEPELDEESEDEVEEEQEERQPSPEPVQENANSGYYEAHPVTNGIEEPLEESSHEPEPEPESETKTEELKPQVEEKNLEELEEKSTTPPPAEPVSLPQEPPKAFSWASVTSKNLPPSGTVSSSGIPPHVKAPVSQPRVEAKPEVQSQPPRVREQRPRERPGFPPRGPRPGRGDMEQNDSDNRRIIRYPDSHQLFVGNLPHDIDENELKEFFMSFGNVVELRINTKGVGGKLPNFGFVVFDDSEPVQRILIAKPIMFRGEVRLNVEEKKTRAARERETRGGGDDRRDIRRNDRGPGGPRGIVGGGMMRDRDGRGPPPRGGMAQKLGSGRGTGQMEGRFTGQRR
binding [5]: binds
binding [6]: binds
binding [7]: binds

B5: G3BP2, endogenous human (protein, UniProt Q9UN86 1-482)
chain: MVMEKPSPLLVGREFVRQYYTLLNKAPEYLHRFYGRNSSYVHGGVDASGKPQEAVYGQNDIHHKVLSLNFSECHTKIRHVDAHATLSDGVVVQVMGLLSNSGQPERKFMQTFVLAPEGSVPNKFYVHNDMFRYEDEVFGDSEPELDEESEDEVEEEQEERQPSPEPVQENANSGYYEAHPVTNGIEEPLEESSHEPEPEPESETKTEELKPQVEEKNLEELEEKSTTPPPAEPVSLPQEPPKAFSWASVTSKNLPPSGTVSSSGIPPHVKAPVSQPRVEAKPEVQSQPPRVREQRPRERPGFPPRGPRPGRGDMEQNDSDNRRIIRYPDSHQLFVGNLPHDIDENELKEFFMSFGNVVELRINTKGVGGKLPNFGFVVFDDSEPVQRILIAKPIMFRGEVRLNVEEKKTRAARERETRGGGDDRRDIRRNDRGPGGPRGIVGGGMMRDRDGRGPPPRGGMAQKLGSGRGTGQMEGRFTGQRR
binding [2]: binds

Results, then the binder that gave them:

binding [1]: binds
binding [2]: binds
B1: TSC1 (hamartin), endogenous human (protein, UniProt Q92574 1-1164)
chain: MAQQANVGELLAMLDSPMLGVRDDVTAVFKENLNSDRGPMLVNTLVDYYLETSSQPALHILTTLQEPHDKHLLDRINEYVGKAATRLSILSLLGHVIRLQPSWKHKLSQAPLLPSLLKCLKMDTDVVVLTTGVLVLITMLPMIPQSGKQHLLDFFDIFGRLSSWCLKKPGHVAEVYLVHLHASVYALFHRLYGMYPCNFVSFLRSHYSMKENLETFEEVVKPMMEHVRIHPELVTGSKDHELDPRRWKRLETHDVVIECAKISLDPTEASYEDGYSVSHQISARFPHRSADVTTSPYADTQNSYGCATSTPYSTSRLMLLNMPGQLPQTLSSPSTRLITEPPQATLWSPSMVCGMTTPPTSPGNVPPDLSHPYSKVFGTTAGGKGTPLGTPATSPPPAPLCHSDDYVHISLPQATVTPPRKEERMDSARPCLHRQHHLLNDRGSEEPPGSKGSVTLSDLPGFLGDLASEEDSIEKDKEEAAISRELSEITTAEAEPVVPRGGFDSPFYRDSLPGSQRKTHSAASSSQGASVNPEPLHSSLDKLGPDTPKQAFTPIDLPCGSADESPAGDRECQTSLETSIFTPSPCKIPPPTRVGFGSGQPPPYDHLFEVALPKTAHHFVIRKTEELLKKAKGNTEEDGVPSTSPMEVLDRLIQQGADAHSKELNKLPLPSKSVDWTHFGGSPPSDEIRTLRDQLLLLHNQLLYERFKRQQHALRNRRLLRKVIKAAALEEHNAAMKDQLKLQEKDIQMWKVSLQKEQARYNQLQEQRDTMVTKLHSQIRQLQHDREEFYNQSQELQTKLEDCRNMIAELRIELKKANNKVCHTELLLSQVSQKLSNSESVQQQMEFLNRQLLVLGEVNELYLEQLQNKHSDTTKEVEMMKAAYRKELEKNRSHVLQQTQRLDTSQKRILELESHLAKKDHLLLEQKKYLEDVKLQARGQLQAAESRYEAQKRITQVFELEILDLYGRLEKDGLLKKLEEEKAEAAEAAEERLDCCNDGCSDSMVGHNEEASGHNGETKTPRPSSARGSSGSRGGGGSSSSSSELSTPEKPPHQRAGPFSSRWETTMGEASASIPTTVGSLPSSKSFLGMKARELFRNKSESQCDEDGMTSSLSESLKTELGKDLGVEAKIPLNLDGPHPSPPTPDSVGQLHIMDYNETHHEHS

binding [3]: binds
B2: TBC1D7, endogenous human, Q9P0N9 1-293 (protein)
chain: MTEDSQRNFRSVYYEKVGFRGVEEKKSLEILLKDDRLDTEKLCTFSQRFPLPSMYRALVWKVLLGILPPHHESHAKVMMYRKEQYLDVLHALKVVRFVSDATPQAEVYLRMYQLESGKLPRSPSFPLEPDDEVFLAIAKAMEEMVEDSVDCYWITRRFVNQLNTKYRDSLPQLPKAFEQYLNLEDGRLLTHLRMCSAAPKLPYDLWFKRCFAGCLPESSLQRVWDKVVSGSCKILVFVAVEILLTFKIKVMALNSAEKITKFLENIPQDSSDAIVSKAIDLWHKHCGTPVHSS
